The supplement of paper PMC11732987, “Enantioselective OTUD7B fragment discovery through chemoproteomics screening and high-throughput optimisation” (Communications Chemistry, 2025)
Some of the results follow. The data scatter; read single values as rough.

Amino acid sequences for entries named in this document (tags omitted). A change or cut given only in a name is not applied to a line headed by its entry.
UniProt Q13045: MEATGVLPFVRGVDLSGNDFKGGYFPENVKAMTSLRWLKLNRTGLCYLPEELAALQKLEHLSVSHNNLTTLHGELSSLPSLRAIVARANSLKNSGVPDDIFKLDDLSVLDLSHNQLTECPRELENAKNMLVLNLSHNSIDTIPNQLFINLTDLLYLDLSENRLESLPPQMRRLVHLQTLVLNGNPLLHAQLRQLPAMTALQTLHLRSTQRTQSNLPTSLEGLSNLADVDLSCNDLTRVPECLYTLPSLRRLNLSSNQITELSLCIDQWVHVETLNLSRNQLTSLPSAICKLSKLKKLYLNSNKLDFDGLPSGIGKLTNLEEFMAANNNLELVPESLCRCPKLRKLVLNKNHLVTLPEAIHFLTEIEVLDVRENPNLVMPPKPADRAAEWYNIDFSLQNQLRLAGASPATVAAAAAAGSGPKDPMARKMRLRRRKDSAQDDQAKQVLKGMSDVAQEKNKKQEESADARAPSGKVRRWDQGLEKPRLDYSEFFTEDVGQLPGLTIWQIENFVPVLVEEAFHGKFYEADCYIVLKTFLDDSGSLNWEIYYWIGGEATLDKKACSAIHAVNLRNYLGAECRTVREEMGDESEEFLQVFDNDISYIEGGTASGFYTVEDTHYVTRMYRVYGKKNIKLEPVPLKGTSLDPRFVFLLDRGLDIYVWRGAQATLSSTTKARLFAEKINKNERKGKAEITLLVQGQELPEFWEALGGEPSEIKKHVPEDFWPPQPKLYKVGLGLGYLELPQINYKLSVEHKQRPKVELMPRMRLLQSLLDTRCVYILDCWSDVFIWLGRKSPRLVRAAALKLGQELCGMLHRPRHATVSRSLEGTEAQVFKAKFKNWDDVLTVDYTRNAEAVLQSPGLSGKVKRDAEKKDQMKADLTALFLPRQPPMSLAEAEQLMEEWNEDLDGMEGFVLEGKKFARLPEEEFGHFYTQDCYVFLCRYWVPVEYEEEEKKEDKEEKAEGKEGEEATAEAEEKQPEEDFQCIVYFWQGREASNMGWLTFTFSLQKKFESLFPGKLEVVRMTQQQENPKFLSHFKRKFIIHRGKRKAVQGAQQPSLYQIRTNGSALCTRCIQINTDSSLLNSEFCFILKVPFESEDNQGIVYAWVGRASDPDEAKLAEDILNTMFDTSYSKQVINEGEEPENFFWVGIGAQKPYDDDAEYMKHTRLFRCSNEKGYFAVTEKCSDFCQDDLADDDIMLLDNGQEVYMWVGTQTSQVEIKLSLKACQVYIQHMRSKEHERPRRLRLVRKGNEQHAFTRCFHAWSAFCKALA

target: T1, FLII C232 (UniProt Q13045); test: log2 mean competition ratio of IA-DTB cysteine labelling (DMSO/compound) (log2 ratio); higher = stronger cysteine engagement by compound; conditions: 50 µM; treatment time: 4 h; cell line lysate: HEK293T
T1 sequence (whole entry): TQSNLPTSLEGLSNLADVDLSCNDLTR
Description: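 IA-DTB competitive cysteine chemoproteomics in HEK293T RIPA lysate. Lysates were treated with compound 29 or 30 at 50 or 200 µM for 4 h, then IA-DTB (500 µM, 1 h), trypsin-digested, NeutrAvidin-enriched and analysed by diaPASEF. Competition ratio = intensity DMSO / intensity compound (n=4 treated, n=64 DMSO); binding: mean log2 CR ≥ 1 and p ≤ 0.05 plus QC filters. Target is the cysteine site.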

| SMILES | log2 mean competition ratio |
| --- | --- |
| O=C(CCl)N[C@H]1CCCc2ccccc21 | -0.296 |
| O=C(CCl)N[C@@H]1CCCc2ccccc21 | 0.511 |

same assay, conditions: 200 µM; treatment time: 4 h; cell line lysate: HEK293T

| SMILES | log2 mean competition ratio |
| --- | --- |
| O=C(CCl)N[C@H]1CCCc2ccccc21 | -0.145 |
| O=C(CCl)N[C@@H]1CCCc2ccccc21 | 0.235 |
